The experiment has as its target OsCAF1A fused to an EYFP fragment (onion BiFC) (rice (Oryza sativa)). As to the kind of experiment: split reporter; BiFC; combinations of nEYFP- and cEYFP-fused proteins co-expressed in onion epidermal cells via particle bombardment.

No constants are given. Whether binding was seen depends on the method and setting. Binding seen in cells or lysates may run through a third protein. A result given as binding can be weak or reduced; the word gives no strength. Sequences can lack the tags named with a protein.

B1: OsRH8 fused to an EYFP fragment (onion BiFC) (protein, UniProt Q6H7S2 1-508)
chain: MDPRARYPPGIGNGRGGNPNYYNRGPPLQQQHNHHQQQQTSAPHHQQYVQRQPQQHHHHNHHQQHQQQQQQWLRRNQIAREAAGTDRNSEPKAVAQSPAVDGIDSSSQDWKAQLKLPPQDTRYRTEDVTATKGNEFEDYFLKRELLMGIYEKGFERPSPIQEESIPIALTGSDILARAKNGTGKTAAFCIPALEKIDQEKNAIQVVILVPTRELALQTSQVCKELGKHLKIQVMVTTGGTSLKDDIIRLYQPVHLLVGTPGRILDLTKKGICILKDCSMLIMDEADKLLSPEFQPSVEQLIRYLPASRQILMFSATFPVTVKEFKDKYLPKPYVINLMDELTLKGITQFYAFVEERQKVHCLNTLFSKLQINQSIIFCNSVNRVELLAKKITELGYSCFYIHAKMLQDHRNRVFHDFRNGACRNLVCTDLFTRGIDIQAVNVVINFDFPKTAETYLHRVGRSGRFGHLGLAVNLITYEDRFNLYRIEQELGTEIKPIPPQIDQAIYCQ
For the molecule B1, the binding result is reported as “binds”.

The values above are taken from publication PMC11990703.
